About 7,700 (2.3%) of roughly 330,000 compounds were called active. Inconclusive results, whose numbers are uncertain, are shown with a selection of clear calls. Calls come from the whole dose curve; as a rule, active = well fitted inhibition curve with a large enough effect; inconclusive = small, poorly fitted or top-dose-only effect, or effect the other way; inactive = flat fitted curve, though single readings scatter. A potency beside an inconclusive call is a rough fit, not a confirmed value.
Assay: qHTS screen for small molecules that inhibit ELG1-dependent DNA repair in human embryonic kidney (HEK293T) cells expressing luciferase-tagged ELG1; note: nearly all actives have a fitted effect of over 55% in size
Settings: HEK293T ELG1-luciferase reporter, luminescence, 16 h, DNA damage induced by 5-fluorouridine; activity change, negative = inhibition: at 46.1 µM (top of the series)
Method in brief: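 5-Fluorouridine DNA damage + compound/DMSO, 2,000 cells/well, 16 h, 37 °C/5% CO2. ONE-Glo, 30 min RT, luminescence. Readout = decrease in reporter signal.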
% is set by controls: 0 for no effect and ±100 for the full control effect; potency is the fitted concentration of half-maximal effect.

SMILES | Potency | activity change, negative = inhibition
O=C(c1ccc(N2CCOCC2)c([N+](=O)[O-])c1)N1CCN(c2ccccc2F)CC1 | inconclusive: 25.9 µM [inhibitor, single point] | –
CC(C)C(CCNCc1ccccn1)c1ccc(Cl)cc1 (configuration not stated) | inconclusive: 8.2 µM [inhibitor, partial curve, poor fit] | –
c1c2c(cc3sc(N4CCOCC4)nc13)OCCO2 | inconclusive: 0.517 µM [activator, full curve] | –
CC(C)c1ccc(NC(=S)Nc2cccc3ccccc23)cc1 | inconclusive: 29.1 µM [activator, single point] | –
CN(Cc1ccccn1)C(=O)CC1C(=O)NCCN1Cc1ccc(F)cc1Cl (configuration not stated) | inconclusive: 16.4 µM [activator, partial curve, poor fit] | –
O=C(N=C1SC2CS(=O)(=O)CC2N1c1ccccc1F)C1CCCCC1 (configuration not stated) | inconclusive: 0.461 µM [inhibitor, partial curve] | –
O=[N+]([O-])c1ccc(N2CCN(Cc3ccccc3)CC2)nc1 | inconclusive: 29.1 µM [inhibitor, single point] | –
CN(CCc1ccccc1)C1CCCN(S(=O)(=O)CC(F)(F)F)C1 (configuration not stated) | – | inactive: 0.0103%
O=C(/C=C/c1ccccc1)Nc1ccc(N2CCCCC2)cc1 | inconclusive: 7.31 µM [activator, partial curve] | –
CC1=NN(C(=O)c2ccc(Cn3nc(C)c([N+](=O)[O-])c3C)cc2)C(O)(C(F)(F)F)C1 (configuration not stated) | – | inactive: -15.9%
CC(C)CN(C(=O)COC(=O)C(C)N1C(=O)c2ccccc2C1=O)c1c(N)n(Cc2ccccc2)c(=O)[nH]c1=O (configuration not stated) | – | inactive: 11.7%
COc1ccc(-c2noc(CNS(=O)(=O)c3ccc(NC(C)=O)cc3)n2)cc1 | – | inactive: 3.8%
COc1ccc2cc(C(=O)NCc3ccccc3CN3CCCC3)ccc2c1 | inconclusive: 13 µM [inhibitor, partial curve, poor fit] | –
COc1ccc(-c2c(C#Cc3ccc(N(C)C)cc3)c3ccccc3n2C)cc1 | inconclusive: 23.1 µM [activator, single point] | –
Cc1nc2ccccc2nc1SCC(=O)c1ccccc1 | inconclusive: 5.8 µM [inhibitor, partial curve] | –
O=C(Cc1ccccc1)Nc1cccc([N+](=O)[O-])c1 | – | inactive: 4.78%
CCNC(=S)N1CCN(S(=O)(=O)c2ccc(C)c(C)c2)CC1 | inconclusive: 32.6 µM [inhibitor, partial curve, poor fit] | –
O=S(=O)(NCc1ccco1)c1ccc2c(c1)Cc1ccccc1-2 | inconclusive: 25.9 µM [activator, partial curve] | –
O=C(c1ccc(Br)cc1)N1CCC(C(=O)N2CCN(c3ccccc3)CC2)CC1 | inconclusive: 29.1 µM [inhibitor, partial curve, poor fit] | –
Cc1cc([N+](=O)[O-])nn1CC(=O)N/N=C/c1ccccc1O | inconclusive: 13 µM [inhibitor, partial curve, poor fit] | –
CCCCOc1ccc(-c2nc(=S)[nH][nH]2)cc1 | inconclusive: 18.4 µM [activator, partial curve] | –
COc1cc(-c2[nH]nc3c2C(c2ccoc2)C(C#N)=C(N)O3)cc(OC)c1OC (configuration not stated) | inconclusive: 16.4 µM [activator, single point] | –
C/C(=N\NC(=O)C1(C)NC(C)(C)Cc2ccccc21)c1ccccc1 (configuration not stated) | inconclusive: 23.1 µM [inhibitor, partial curve, poor fit] | –

SMILES | Potency | activity change, negative = inhibition
Cc1occc1C(=O)NNC(=O)C1CCCC1 | – | inactive: 7.7%
COc1ccc(OCC(O)CNC(=O)c2c(-c3ccccc3)noc2C)cc1 (configuration not stated) | – | inactive: -6.66%
O=C(COC(=O)C1CC2CCCC(C1)C2=O)Nc1ccccc1 (configuration not stated) | – | inactive: 25.5%
O=C(NC(NCc1ccccc1)C(Cl)(Cl)Cl)c1cccnc1 (configuration not stated) | – | inactive: -4.84%
O=C(CCOc1ccccc1)Nc1ccccc1 | inconclusive: 4.11 µM [activator, single point] | –
COc1ccc(/C(O)=C2/C(=O)C(=O)N(CCN3CCOCC3)C2c2ccccn2)cc1 (configuration not stated) | inconclusive: 20.6 µM [activator, partial curve] | –
Cn1nc(C(=O)Nc2ccc(S(=O)(=O)N3CCCCC3)cc2)ccc1=O | active: 16.4 µM | –
CNC(=O)CSc1nnc(NC(=O)C2CC(=O)N(c3ccccc3OC)C2)s1 (configuration not stated) | – | inactive: -13.4%
O=[N+]([O-])c1cc([N+](=O)[O-])c2nonc2c1Nc1ccccc1O | – | inactive: 6.57%
O=C(Nc1ccc(F)cc1)Nc1ccc2c(c1)CCC2 | inconclusive: 5.17 µM [activator, partial curve] | –
Nc1ccc2oc(-c3ccccc3Cl)nc2c1 | inconclusive: 2.91 µM [activator, full curve] | –
COc1ccc(C)cc1NC(=O)CCNC(=O)Cn1cnc2ccccc2c1=O | – | inactive: -9.66%
CC(=O)Nc1ccc(S(=O)(=O)NC2=C(N3CCN(c4ccc(F)cc4)CC3)C(=O)c3ccccc3C2=O)cc1 | active: 8.2 µM | –
O=C1C2ON(c3ccccc3)C(c3cccnc3)C2C(=O)N1c1ccccc1 (configuration not stated) | – | inactive: 7.93%
O=C(CN1C(=O)c2ccccc2S1(=O)=O)c1ccc2c(c1)OCCCO2 | active: 1.03 µM | –
Cc1ccc(NC(=O)C2=C(O)c3sccc3N(C)S2(=O)=O)cc1 | inconclusive: 4.11 µM [activator, partial curve] | –
COC(=O)N1CCc2c(sc(NC(=O)C3=COCCO3)c2C#N)C1 | inconclusive: 29.1 µM [activator, single point] | –
COc1ccc(S(=O)(=O)N2CCCCCC2)cc1N(C)S(=O)(=O)c1ccc(Cl)cc1 | inconclusive: 16.4 µM [inhibitor, partial curve] | –
OCC[C@@H]1C[C@H](O)[C@@H](O)[C@@]2(CCCc3ccccc3O2)O1 | – | inactive: 12%
CCc1ccc(C(=O)COC(=O)CNC(=O)CNC(=O)Cc2ccccc2)cc1 | inconclusive: 29.1 µM [activator, single point] | –
CCO[C@H]1OC(C(=O)N2CCN(Cc3ccccc3)CC2)=C[C@@H](c2cn(C(C)=O)c3ccccc23)[C@@H]1CCCO | inconclusive: 9.2 µM [inhibitor, partial curve] | –
NC(=O)C1CCN(C2=C(NS(=O)(=O)c3ccccc3)C(=O)c3ccccc3C2=O)CC1 | inconclusive: 23.1 µM [inhibitor, partial curve] | –
NNc1nc2c(-c3ccc(Cl)cc3)nnn2c2ccccc12 | inconclusive: 2.91 µM [activator, partial curve, poor fit] | –

SMILES | Potency | activity change, negative = inhibition
O=C(NCc1ccccc1Cl)C1CCN(S(=O)(=O)c2ccc(-n3cnnn3)cc2)CC1 | inconclusive: 5.17 µM [activator, partial curve, poor fit] | –
COc1ccc(C(=O)OCC(=O)Nc2sccc2C(N)=O)cc1OC | inconclusive: 2.06 µM [inhibitor, partial curve, poor fit] | –
CC(=O)Oc1ccc2c(=O)c(N3C(=O)c4ccccc4C3=O)c(C)oc2c1 | – | inactive: 10.7%
O=C(Cn1ncc(Cl)c(Cl)c1=O)c1ccc(Cl)cc1 | inconclusive: 29.1 µM [inhibitor, single point] | –
NC(=O)CC(NC(=O)Cc1ccc(Br)cc1)c1ccc(NCCN2CCOCC2)c([N+](=O)[O-])c1 (configuration not stated) | inconclusive: 0.517 µM [inhibitor, full curve, poor fit] | –
Cc1ccc(S(=O)(=O)N(C)c2ccc(OCC(=O)Nc3nc4ccccc4s3)cc2)cc1 | inconclusive: 14.6 µM [inhibitor, partial curve] | –
CCC1CCCCN1S(=O)(=O)c1ccc(NC(=O)c2snnc2C)cc1 (configuration not stated) | inconclusive: 23.1 µM [inhibitor, partial curve, poor fit] | –
Cc1cc(SCC(=O)c2ccccc2)n2ncc(-c3ccccc3)c2n1 | inconclusive: 3.26 µM [activator, single point] | –
CCN1CCN(c2ccc(NC(=O)c3cccc(S(=O)(=O)N4CCCC4)c3)cc2)CC1 | – | inactive: 12%
CCCOC(=O)c1ccc(NC(=O)c2nc3nc(C)cc(C)n3n2)cc1 | inconclusive: 5.17 µM [inhibitor, single point] | –
COc1ccc(CNS(=O)(=O)c2ccc3c(c2)CC(C)N3C(=O)C2CC2)cc1 (configuration not stated) | – | inactive: -28.8%
CN(CCCNC(=O)CCC(=O)N1CCOc2ccc(Cl)cc21)Cc1ccccc1 | – | inactive: 9.12%
O=C(Nc1ccccc1Br)c1ccc(N2CCCC2=O)cc1 | inconclusive: 7.3 µM [activator, partial curve] | –
COC(=O)[C@@H](NC(=O)/C=C/c1ccc(OC)cc1)C(C)C | inconclusive: 8.2 µM [activator, partial curve, poor fit] | –
COc1ccc(-c2csc(N(CCc3ccc(OC)c(OC)c3)C(=O)COc3ccccc3)n2)cc1 | inconclusive: 3.26 µM [inhibitor, full curve] | –
O=C1Nc2ccc(S(=O)(=O)NCc3ccccn3)c3cccc1c23 | – | inactive: 0.798%
O=C(c1cc([N+](=O)[O-])ccc1Cl)N1CCN(c2ccc([N+](=O)[O-])cc2)CC1 | inconclusive: 20.6 µM [inhibitor, single point] | –
COc1ccc2oc(C(=O)OCC(=O)N(C)C3CCS(=O)(=O)C3)c(C)c2c1 (configuration not stated) | – | inactive: 2%
O=C(O)c1ccccc1C(=O)Nc1nc(-c2ccc3ccccc3c2)cs1 | inconclusive: 18.3 µM [activator, partial curve] | –
S=C(NC1CCCC1)N1CCN(c2ccc(Cl)cc2)CC1 | inconclusive: 29.1 µM [inhibitor, partial curve, poor fit] | –
COc1cccc(NC(=O)CSc2nc3c([nH]c4ccccc43)c(=O)n2C)c1 | inconclusive: 5.8 µM [inhibitor, full curve] | –

Retrieved by structure from the list above, six records:
SMILES | Potency | activity change, negative = inhibition
Cc1nc2ccccc2nc1SCC(=O)c1ccccc1 | inconclusive: 5.8 µM [inhibitor, partial curve] | –
CCC1CCCCN1S(=O)(=O)c1ccc(NC(=O)c2snnc2C)cc1 (configuration not stated) | inconclusive: 23.1 µM [inhibitor, partial curve, poor fit] | –
COc1ccc(OCC(O)CNC(=O)c2c(-c3ccccc3)noc2C)cc1 (configuration not stated) | – | inactive: -6.66%
Cc1cc(SCC(=O)c2ccccc2)n2ncc(-c3ccccc3)c2n1 | inconclusive: 3.26 µM [activator, single point] | –
COc1ccc(-c2noc(CNS(=O)(=O)c3ccc(NC(C)=O)cc3)n2)cc1 | – | inactive: 3.8%
O=C(N=C1SC2CS(=O)(=O)CC2N1c1ccccc1F)C1CCCCC1 (configuration not stated) | inconclusive: 0.461 µM [inhibitor, partial curve] | –
